Results: paper PMC4458895
Results are given in words; binding and its absence hold for the method and conditions named.

Amino acid sequences for entries named in this document (tags omitted). Residues count along the entry.
UniProt Q2G2B2, residues 420-629: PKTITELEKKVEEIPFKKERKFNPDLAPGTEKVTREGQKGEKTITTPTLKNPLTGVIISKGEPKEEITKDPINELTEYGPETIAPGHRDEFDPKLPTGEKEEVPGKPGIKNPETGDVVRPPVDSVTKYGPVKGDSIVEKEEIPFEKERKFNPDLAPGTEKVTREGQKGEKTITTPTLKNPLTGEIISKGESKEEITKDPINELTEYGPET

Target: SasG G5^1-E-G5^2 (G5^1–G5^2; residue range 420–629) (S. aureus strain NCTC 8325-4) (UniProt Q2G2B2)
Assay: SEC-MALS; SEC-multi-angle laser light scattering-quasi-elastic light scattering; samples in the range 1.5-2 mg ml^-1; Superdex 200 10/300 GL column, Dawn HELEOS-II detector; self-association of each construct tested; both purified

With “SasG G5^1-E-G5^2 (G5^1–G5^2; residue range 420–629) (from UniProt Q2G2B2 420-629) (domain or fragment)” the binding was “no binding (tested: 1.5–2 mg ml^−1)”.
